Data as given in PubChem BioAssay AID686943 (Drosophila RNAi Screening Center, 2013)
Screen: 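Knockdowns that increase or decrease active ERK after insulin receptor stimulation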 (primary screen). Cell system: Drosophila S2R+ haemocyte-like cells expressing YFP-tagged ERK (Rolled). Reagents: long dsRNA against Drosophila genes. Conditions: insulin stimulation versus unstimulated cells; dose and duration not given. Measured: 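Per-plate z-scores of phospho-ERK immunostaining normalised to YFP-tagged ERK, measured with and without insulin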. Scale: replicate 1, z-score of dpERK with insulin: higher = more active ERK per ERK-YFP after insulin.
The screen tested about 23,000 reagents; this is an unselected part of those that have a named target and a result. 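Extra replicates exist only for a retested subset of genes; insulin dose and duration not given; both raised and lowered dpERK matter.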 Further read-outs or replicates are left out here. The record does not give: the amount of reagent, the time to read-out.

target gene	amplicon	replicate 1, z-score of dpERK with insulin
Bacc	DRSC00735	0.66
Ir48c	DRSC06154	1.33
Egfr	DRSC03871	0.31
Egfr	DRSC04613	-0.03
CG13230	DRSC06350	0.14
Cpn	DRSC16613	0
sut2	DRSC07701	0.39
CG11334	DRSC14066	-0.2
CG11334	DRSC14302	0.3
Arp2	DRSC19332	-1.13
CG13058	DRSC09941	0.39
fzr	DRSC18781	1.31
CG3213	DRSC00576	-0.49
CG5157	DRSC10488	-0.11
CG11211	DRSC04851	0.5
Rpn6	DRSC07541	-2.77
CG17549	DRSC02625	1.14
coil	DRSC07242	0.37
Dlish	DRSC06016	0.61
wdn	DRSC17095	0.15
beta-Spec	DRSC20311	-0.26
Mocs1	DRSC11225	-0.07
PTPMT1	DRSC14235	1.51
CG9360	DRSC20180	0.24
CG44837	DRSC10133	-0.96
CG44837	DRSC10558	-0.35
CG11474	DRSC04112	0.05
Qtzl	DRSC01221	0.46
CG12990	DRSC19510	0.4
Nmda1	DRSC07479	-0.36
Hexo2	DRSC18671	1.6
eIF3d2	DRSC15651	-0.33

Continued (8 carried over from the part before).
target gene	amplicon	replicate 1, z-score of dpERK with insulin
CG44837	DRSC10133	-0.96
CG44837	DRSC10558	-0.35
CG11474	DRSC04112	0.05
Qtzl	DRSC01221	0.46
CG12990	DRSC19510	0.4
Nmda1	DRSC07479	-0.36
Hexo2	DRSC18671	1.6
eIF3d2	DRSC15651	-0.33
ppk6	DRSC06062	-0.36
AANATL7	DRSC18616	-1.09
CG2574	DRSC19862	0.73
krimp	DRSC06578	0.44
Fas3	DRSC01638	-0.92
Fas3	DRSC03326	-0.19
Fas3	DRSC22776	1.81
l(3)psg2	DRSC10484	1.69
CG14851	DRSC14975	0.69
CG14851	DRSC21500	-0.42
Opa1	DRSC07191	0.1
Ip6k	DRSC04054	-1.64
RpS10b	DRSC19561	-0.19
CG9759	DRSC16558	1.18
Or13a	DRSC20265	-0.15
Adgf-D	DRSC16521	-0.08
CG32767	DRSC18386	1.88
mAcon2	DRSC15629	0.3
Hsc70-4	DRSC16711	-0.37
Hk	DRSC17638	-5.07
Hk	DRSC17639	-2.41
Hk	DRSC18138	-1.58
Hk	DRSC18674	-2.55
CG5708	DRSC02881	-0.1
CG30416	DRSC04565	0.18
